Data: article PMC5996148
Several values for one entry are separate records, joined by “and”; a condition that tells them apart may be missing. Identical values can stand only once. The list shows a part of the results. For some of these results: The source does not settle which construct or isoform was used.

The chains behind the UniProt entries cited, without tags or fusion partners. Where a name states a change or a piece, a line headed by the entry shows the natural chain unless it says otherwise.
UniProt Q15691: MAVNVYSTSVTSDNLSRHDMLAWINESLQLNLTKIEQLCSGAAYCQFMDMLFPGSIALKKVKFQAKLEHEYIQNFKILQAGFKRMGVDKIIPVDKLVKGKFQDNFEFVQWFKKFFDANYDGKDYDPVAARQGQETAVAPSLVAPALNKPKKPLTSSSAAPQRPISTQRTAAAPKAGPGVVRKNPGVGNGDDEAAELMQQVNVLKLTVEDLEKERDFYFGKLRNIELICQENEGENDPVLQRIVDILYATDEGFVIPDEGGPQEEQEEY

Experiments:
Assay in all cases: protein microarray (ProtoArray v5.0), streptavidin-Alexa Fluor 647
Settings in all cases: 3'-biotin; 20 mM Tris (pH 7.5), 5 mM MgCl2, 100 mM KCl, 0.1% Tween-20, A/T-rich and random oligonucleotide blockers; temperature not stated; high values mean tight binding
MAPRE1 = MAPRE1 (UniProt Q15691)
MAPRE2 (human) = tested on: MAPRE2 (human)
MARVELD2 (human) = tested on: MARVELD2 (human)
MASP2 (human) = tested on: MASP2 (human)
MAT1A (human) = tested on: MAT1A (human)
MAT2B (human) = tested on: MAT2B (human)
MB (human) = tested on: MB (human)
MCFD2 (human) = tested on: MCFD2 (human)
MCM2 (human) = tested on: MCM2 (human)
MCM6 (human) = tested on: MCM6 (human)

## GGTGACAGGGGTATGGGGAGGGG [G4-2 biotinylated (Ct1)]
MAPRE1
  binding signal: 3.27 z-score
MAPRE2 (human)
  binding signal: -0.358 z-score
MARVELD2 (human)
  binding signal: -0.394 z-score
MASP2 (human)
  binding signal: -0.372 z-score
MAT1A (human)
  binding signal: -0.369 z-score
MAT2B (human)
  binding signal: -0.377 z-score
MB (human)
  binding signal: -0.401 z-score
MCFD2 (human)
  binding signal: -0.374 z-score
MCM2 (human)
  binding signal: -0.393 z-score and -0.38 z-score
MCM6 (human)
  binding signal: -0.41 z-score
